{
  "source": "paper PMC3325980",
  "binders": {"B1": {"name": "gremlin-1-Fc fusion protein (Fc fusion, UniProt O60565 25-184)", "chain": "KKKGSQGAIPPPDKAQHNDSEQTQSPQQPGSRNRGRGQGRGTAMPGEEVLESSQEALHVTERKYLKRDWCKTQPLKQTIHEEGCNSRTIINRFCYGQCNSFYIPRHIRKEEGSFQSCSFCKPKKFTTMMVTLNCPELQPPTKKKRVTRVKQCRCISIDLD"}, "B2": {"name": "gremlin-1-Fc fusion protein, O60565 25-184 (Fc fusion)", "chain": "KKKGSQGAIPPPDKAQHNDSEQTQSPQQPGSRNRGRGQGRGTAMPGEEVLESSQEALHVTERKYLKRDWCKTQPLKQTIHEEGCNSRTIINRFCYGQCNSFYIPRHIRKEEGSFQSCSFCKPKKFTTMMVTLNCPELQPPTKKKRVTRVKQCRCISIDLD"}},
  "assay_in_all_cases": "ELISA; enzyme immunoassay; microtiter plates coated with 100 nM BMP-2, BMP-4 or BMP-7, blocked with 1% skim milk in PBS; gremlin-1-Fc 10 nM added (with or without 500 nM GRE1 antibody); detected with HRP-conjugated IgG-Fc specific antibody and ABTS; triplicate; both purified",
  "key": {"BMP-4": {"biological_target": "T1, BMP-4 (UniProt P12644)", "T1 sequence": "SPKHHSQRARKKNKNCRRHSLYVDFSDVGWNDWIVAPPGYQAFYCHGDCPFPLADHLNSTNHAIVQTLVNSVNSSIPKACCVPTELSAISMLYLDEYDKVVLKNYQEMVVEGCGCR"}, "BMP-2": {"biological_target": "T2, BMP-2 (UniProt P12643)", "T2 sequence": "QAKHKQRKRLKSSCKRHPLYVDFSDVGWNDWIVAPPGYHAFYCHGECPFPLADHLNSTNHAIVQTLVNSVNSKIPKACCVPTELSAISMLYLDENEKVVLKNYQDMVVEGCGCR"}, "BMP-7, P18075": {"biological_target": "T3, BMP-7, P18075", "T3 chain": "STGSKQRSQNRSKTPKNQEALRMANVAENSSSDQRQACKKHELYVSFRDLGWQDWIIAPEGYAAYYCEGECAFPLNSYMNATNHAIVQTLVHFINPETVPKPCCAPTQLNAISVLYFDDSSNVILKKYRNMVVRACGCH", "settings": "remark: other sources report otherwise"}},
  "note": "No constants are given. Whether binding was seen depends on the method and setting. Some results given as binding are weak or reduced against the parent protein; the word gives no strength. Tags and fused reporters may be left off the sequences shown.",
  "data": [
    {"binder": "B1", "values": [
      {"measurement": "binding", "setting": "BMP-4", "result": "binds"},
      {"measurement": "binding", "setting": "BMP-2", "result": "binds"}
    ]},
    {"binder": "B2", "values": [
      {"measurement": "binding", "setting": "BMP-7, P18075", "result": "no binding (tested: 10 nM)"}
    ]}
  ]
}
